The record followed here is PMC5225548.

Chains of the proteins cited; added tags and fusions are not shown. Lines headed by an entry give the natural chain unless they say otherwise; changes in a name come on top.
UniProt P04792: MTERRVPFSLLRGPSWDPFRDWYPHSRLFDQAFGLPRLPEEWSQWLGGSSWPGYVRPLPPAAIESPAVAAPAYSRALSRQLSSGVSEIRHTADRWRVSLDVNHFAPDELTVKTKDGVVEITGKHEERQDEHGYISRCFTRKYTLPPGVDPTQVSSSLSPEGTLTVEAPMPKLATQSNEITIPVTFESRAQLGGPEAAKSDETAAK
UniProt Q15365: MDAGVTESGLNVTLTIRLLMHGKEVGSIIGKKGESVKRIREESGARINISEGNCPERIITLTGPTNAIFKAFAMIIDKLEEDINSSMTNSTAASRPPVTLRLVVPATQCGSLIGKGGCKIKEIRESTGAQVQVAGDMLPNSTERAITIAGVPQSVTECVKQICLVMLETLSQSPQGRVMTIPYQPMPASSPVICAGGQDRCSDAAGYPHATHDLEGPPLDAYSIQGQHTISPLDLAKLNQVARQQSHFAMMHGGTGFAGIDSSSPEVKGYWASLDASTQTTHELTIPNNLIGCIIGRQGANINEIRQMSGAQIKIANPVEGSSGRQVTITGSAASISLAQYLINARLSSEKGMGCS

These are yes or no findings as the source states them, for the method shown. In cells and extracts the contact can be indirect. Some binding calls cover weakened binding; strength is not graded here.

The target of the experiment is HSPB1-P182L fused to a V5-tag (HeLa) (human) (UniProt P04792). Kind of experiment: co-IP; transiently transfected HeLa cells; pull-down directed against the V5-tag of the HSPB1 constructs (anti-V5 beads), PCBP1 detected by its VSV-tag; EGFP-V5 as negative control; lysis and wash buffer 0.5% Nonidet P-40 in PBS salts; overnight at 4 °C.

Take PCBP1-VSV (from UniProt Q15365 1-356): the binding entry is on record as “binds”.
